# Measured values as given in article PMC4214753.
# Protein sequences, listed by entry. Tags and fused reporters are not part of them. Lines headed by an entry give the natural chain unless they say otherwise; changes in a name come on top.
# UniProt P42768: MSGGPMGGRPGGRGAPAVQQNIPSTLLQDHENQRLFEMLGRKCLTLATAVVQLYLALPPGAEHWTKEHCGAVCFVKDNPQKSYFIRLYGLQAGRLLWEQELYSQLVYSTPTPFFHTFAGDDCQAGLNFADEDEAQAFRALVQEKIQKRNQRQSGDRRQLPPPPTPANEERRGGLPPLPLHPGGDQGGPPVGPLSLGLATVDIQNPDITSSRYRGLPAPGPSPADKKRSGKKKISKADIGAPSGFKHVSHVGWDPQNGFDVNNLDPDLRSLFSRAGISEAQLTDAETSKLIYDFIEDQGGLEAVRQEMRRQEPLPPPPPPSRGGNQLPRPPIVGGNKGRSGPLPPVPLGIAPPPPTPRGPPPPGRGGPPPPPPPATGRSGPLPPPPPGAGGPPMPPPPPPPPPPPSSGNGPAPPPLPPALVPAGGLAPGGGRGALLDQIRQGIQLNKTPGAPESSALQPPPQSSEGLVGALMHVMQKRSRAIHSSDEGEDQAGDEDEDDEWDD
# UniProt P60766: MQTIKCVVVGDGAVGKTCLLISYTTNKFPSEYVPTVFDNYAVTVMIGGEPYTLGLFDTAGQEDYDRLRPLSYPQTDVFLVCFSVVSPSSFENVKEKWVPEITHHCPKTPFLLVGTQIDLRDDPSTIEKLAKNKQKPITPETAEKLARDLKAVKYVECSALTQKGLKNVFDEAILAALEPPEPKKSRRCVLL
# No constants are given. Whether binding was seen depends on the method and setting. Binding seen in cells or lysates may run through a third protein. A result given as binding can be weak or reduced; the word gives no strength.
# Biological target: His-WASP-CBD (Cdc42 binding domain) (UniProt P42768)
# Assay: pull-down; CBD- or mCBD-beads with lysates of pseudopodia isolated from WT- or KO-MEF; IB for bound, active Cdc42; only the target purified
substance,measurement,value
Cdc42 (from UniProt P60766 1-191),binding,binds
